Reference: publication PMC6868398
Read-outs that look alike come from different tables or passages of the source. These are yes or no findings as the source states them, for the method shown. For part of these data: In cells and extracts the contact can be indirect. Some entries that bind do so weakly or less than the wild type. For part of these data: Sequences can lack the tags named with a protein. One block for each molecule: values may come before it.

Sequences of proteins named here, by UniProt entry; tags and fusion partners are left off.
UniProt Q17963: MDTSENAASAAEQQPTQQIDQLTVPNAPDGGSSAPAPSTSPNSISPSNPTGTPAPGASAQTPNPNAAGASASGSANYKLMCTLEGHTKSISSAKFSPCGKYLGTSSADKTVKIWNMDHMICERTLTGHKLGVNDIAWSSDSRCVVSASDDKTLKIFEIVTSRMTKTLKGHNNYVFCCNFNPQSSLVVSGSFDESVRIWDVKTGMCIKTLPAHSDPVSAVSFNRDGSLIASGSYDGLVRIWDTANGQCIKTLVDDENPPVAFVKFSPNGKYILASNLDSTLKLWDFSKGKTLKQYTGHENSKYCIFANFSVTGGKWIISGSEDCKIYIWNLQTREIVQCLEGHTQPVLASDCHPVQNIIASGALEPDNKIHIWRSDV
UniProt O17695: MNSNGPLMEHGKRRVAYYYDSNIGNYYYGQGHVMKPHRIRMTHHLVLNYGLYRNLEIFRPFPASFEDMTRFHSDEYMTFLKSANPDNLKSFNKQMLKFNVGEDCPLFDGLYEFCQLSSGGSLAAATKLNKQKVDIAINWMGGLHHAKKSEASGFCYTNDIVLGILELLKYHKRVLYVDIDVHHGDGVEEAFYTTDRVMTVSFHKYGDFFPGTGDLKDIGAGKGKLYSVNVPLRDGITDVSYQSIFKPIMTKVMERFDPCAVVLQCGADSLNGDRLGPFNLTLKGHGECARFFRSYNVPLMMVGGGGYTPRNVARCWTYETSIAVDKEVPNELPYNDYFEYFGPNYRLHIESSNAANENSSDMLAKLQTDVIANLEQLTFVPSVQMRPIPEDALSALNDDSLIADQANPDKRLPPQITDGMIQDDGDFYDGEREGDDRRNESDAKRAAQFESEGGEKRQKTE

Tests used:
HA::WDR-5.1 (C. elegans) [1] = molecular target: HA::WDR-5.1 (C. elegans) (UniProt Q17963); assay: co-IP; HA::WDR-5.1 precipitated with anti-HA affinity matrix from C. elegans embryo extract, benzonase treatment, eluted with HA peptide; western blot; control from wild type without transgene
CFP-1::GFP (C. elegans) = molecular target: T1, CFP-1::GFP (C. elegans) (UniProt Q9XUE7); assay: co-IP; CFP-1::GFP precipitated with GFP-TRAP MA beads from C. elegans embryo total protein extract (4-5 mg); IP buffer 50 mM HEPES/KOH pH 7.5, 300 mM KCl, 0.2% Igepal-CA630; benzonase treatment; western blot; control from wild type without transgene; CFP-1/SIN-3 also from young adults; HDA-1 and MRG-1 also from sin-3(tm1276) mutant extracts
T1 sequence: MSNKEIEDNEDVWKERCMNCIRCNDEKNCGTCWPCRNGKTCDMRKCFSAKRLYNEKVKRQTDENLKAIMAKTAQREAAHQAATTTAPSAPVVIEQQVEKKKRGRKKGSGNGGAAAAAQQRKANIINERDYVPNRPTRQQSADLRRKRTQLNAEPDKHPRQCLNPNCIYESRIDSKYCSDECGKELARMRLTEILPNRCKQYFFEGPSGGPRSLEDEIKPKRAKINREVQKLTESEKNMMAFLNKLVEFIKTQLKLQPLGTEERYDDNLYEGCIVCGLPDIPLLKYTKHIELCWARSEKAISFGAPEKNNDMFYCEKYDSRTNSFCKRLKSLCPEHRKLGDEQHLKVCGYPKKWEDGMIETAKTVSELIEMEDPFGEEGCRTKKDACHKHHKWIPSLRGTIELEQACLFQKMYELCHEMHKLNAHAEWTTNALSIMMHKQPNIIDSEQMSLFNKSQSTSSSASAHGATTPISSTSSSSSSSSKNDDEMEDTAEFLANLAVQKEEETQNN

[2] = molecular target: T2, Full-length GST::CFP-1 (C. elegans) (UniProt Q9XUE7); assay: pull-down; GST::CFP-1 bacterial supernatant mixed with HIS6::SIN-3 fragment supernatant overnight at 4°C; GST purification; lysis buffer 50 mM Tris pH 8.0, 300 mM NaCl; eluted with 20 mM glutathione; western blot with anti-histidine antibody
T2 sequence: T1 sequence

[3] = molecular target: MRG-1 full length, yeast two-hybrid fusion (C. elegans) (UniProt A7DTF0); assay: two-hybrid; LexA (BD)/B42 (AD) system, cross-mating of EGY42a (BD + pSH18-34 reporter) and TB50alpha (AD) yeast, beta-galactosidase (X-Gal) staining after 48 h at 25°C; each hetero-interaction tested in both directions
[4] = molecular target: CFP-1 full length, yeast two-hybrid fusion (C. elegans) (UniProt Q9XUE7); assay: as above
[5] = molecular target: SIN-3 full length, yeast two-hybrid fusion (C. elegans) (UniProt A5JYW9); assay: as above
HA::WDR-5.1 (C. elegans) [6] = molecular target: HA::WDR-5.1 (C. elegans) (UniProt Q17963); assay: co-IP; HA::WDR-5.1 precipitated with anti-HA affinity matrix from C. elegans embryo extract, benzonase treatment, eluted with HA peptide; western blot; control from wild type without transgene; remark: listed apart in the source

- binding (HA::WDR-5.1 (C. elegans) [1]): binds
- binding (CFP-1::GFP (C. elegans)): binds
Molecule: HDA-1 (from UniProt O17695 1-461)

- binding [2]: binds
B1: HIS6::SIN-3[1–738] (domain or fragment, UniProt A5JYW9 1-738)
chain: MYNPPPGGGGGNNGGDQSQQQPTNNATLFLLQMIQQSQHQQQHQNQQQQQLELQIRDQERILIEQQRMQHQQQQNQLLQGLNQFPFNPLGLFQVQAAVQAAQAQFAQNAQGSPIPFHIGSPLQPSHSPAASALQQQYLLPSHSPAITPFARNSEAARNIEQFIAQEEAANVPRANSQQQSPLIRPIPQQQALNIQNLTSTQQAQQILAHHRQVPVQQVQHQQHIPTPPLALPIAQQGPISNEVPSVPPVVPATSAGCPQREPRQQQGGRRQNRPGRRKKPEGPPRVDEALAYLRVIKSTFSSDVPVYHRFLEIMKDFRAQRIETPDVIEQVAELLYDSPELVLGFNTFLPTGYRITLTPDRKYVFSSPQMQPRVLLSPDERRARAIEAGAQAVGAIELGSQEGISKDEDRTIEDEDMDKSKEKDDVDGIDDEDDEESGIEDKNNEEMMEEDNHLIEEIICDDRKKDDCEDSQQEIEMSSELAAHTLNIIELLKKSFLARPTKLVDFMTFIDFFMSDQQYKKDMEKLRKDDEDDEIEENEKIEVDDVPGPSNAPQEIKKPDDIEKKDSSKNLQIEESCSDYLVSMLANCCIGEPDLLAATIDFLPYLGKLLVNGSDAIALKIKTILHFSATNDRNDIPPVNRVNPSDVDMDLVKQMEKCKMGTKKNEKLKLKVAGQGDEGATVELMILKKSYRILYERLKSRTTPNQLSHLMVLINAYANLDITREQLISELPKIMGTS

- binding (CFP-1::GFP (C. elegans)): binds
B2: MRG-1 (protein, UniProt A7DTF0 1-337)
chain: MSSKKNFEVGENVACIYKGKPYDAKITDIKTNSDGKELYCVHFKGWNNRYDEKIPVGEEKDRIFKGTASEYAEKHNAELPTTALKPKKKSLAAEAPRDDRDDTPGTSKGKKAKSVTIAPVMTADDMKVELPKPLRKILIDDYDLVCRYFINIVPHEYSVDQIIEDYIKTIPVSNEQMRTVDDLLIEYEEADIKITNLALICTARGLVDYFNVTLGSSYQLLYKFERPQYNDLVKKRAMEKGIDITNPTALQDSGFRPSQEYGIVHFLRMLAKLPDYLKLTQWNDHVINRIMIGVHDLIVFLNKNHGKYYRGSSDYQGASNDYYRRSLAADDGVGANQ

- binding [4]: binds
- binding [5]: binds
B4: CFP-1 full length, yeast two-hybrid fusion (protein, UniProt Q9XUE7 1-508)
chain: T1 sequence

- binding (HA::WDR-5.1 (C. elegans) [6]): binds
- binding (CFP-1::GFP (C. elegans)): binds
B6: ASH-2 (protein, UniProt G5EFZ3 1-570)
chain: MRSSKGGRGRQAAPKTAPTTVCYCDGKRELGSVEVVCSTCLKWFHGRCLKEFHELNSNGVPFMICYTFTCKQCRPTAEDWKAKKADLVQMCVTVLATLSAERLKADGKLSAEHVPEDFTYLSLKDEIVPYMNENWYMLTAIKQKKEWHQNLAPTLLKEKNIFVQHNDDDDLFALAEKNLSLLGPLHEAVKLIGKRPIERENREPRHIELPPIEGPKTRGASKRRHAEAPVTGKKQKLAADYSSTAAPNGVQIDIPFSKDNYRYYLTEVDPNVPEDPAWNQNQSSAYVIPSFHYRELLNPTVNVSSNDRAFQLSINGNSITGFEGYSMARASHGVSKGTWYFEVNFDDQPDDSHIRIGWSQSYASLQACVGYNKFSYGWRSKHGTKFHEAKGKKYHFGGFKQGDVLGCLIHLPVDKKLQIPANLPSEKYLPVSHKGFNLISFKANYFFEVQEESADIAKTLVEMPGSYIEFFHNGKSCGKAYENIYAGAYYPSISIFKSATATMNLGPKFRNLPRGATGIHARADEQQHEQTLSDMLYLVSKEVNLDHPPRVKREDDDDVKDIKKEIKQEI

More lines, now with the values behind:

Molecule: HA::WDR-5.1 (from UniProt Q17963 1-376)
- binding (CFP-1::GFP (C. elegans)): binds

Molecule: SIN-3 (from UniProt A5JYW9 1-1507)
- binding (CFP-1::GFP (C. elegans)): binds

B3: MRG-1 full length, yeast two-hybrid fusion (protein, UniProt A7DTF0 1-337)
chain: B2 chain
- binding [3]: binds

B5: CFP-1::GFP (protein, UniProt Q9XUE7 1-508)
chain: T1 sequence
- binding (HA::WDR-5.1 (C. elegans) [6]): binds
